These are yes or no findings as the source states them, for the method shown. In cells and extracts the contact can be indirect. Here binding means that the protein was enriched with, or labelled near, the bait; the list need not be complete.
Biological target: PSMA8 (testis-specific α4s subunit of the spermatoproteasome) (mouse (endogenous in testis)) (UniProt Q9CWH6)
Assay: affinity purification with mass spectrometry

The chains behind the UniProt entries cited, without tags or fusion partners.
UniProt Q9CWH6: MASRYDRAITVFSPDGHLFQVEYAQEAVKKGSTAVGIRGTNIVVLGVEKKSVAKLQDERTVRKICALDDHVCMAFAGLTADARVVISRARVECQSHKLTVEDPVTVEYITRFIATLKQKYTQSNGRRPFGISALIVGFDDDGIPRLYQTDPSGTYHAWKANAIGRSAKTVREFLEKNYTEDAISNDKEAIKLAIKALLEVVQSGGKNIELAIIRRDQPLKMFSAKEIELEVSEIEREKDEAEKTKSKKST

B1: CAND1 (protein, UniProt Q6ZQ38 1-1230)
chain: MASASYHISNLLEKMTSSDKDFRFMATNDLMTELQKDSIKLDDDSERKVVKMILRLLEDKNGEVQNLAVKCLGPLVSKVKEYQVETIVDTLCTNMLSDKEQLRDISSIGLKTVIGELPPASSGSALAANVCKKITGRLTSAIAKQEDVSVQLEALDIMADMLSRQGGLLVNFHPSILTCLLPQLTSPRLAVRKRTIIALGHLVMSCGNIVFVDLIEHLLSELSKNDSMSTTRTYIQCIAAISRQAGHRIGEYLEKIIPLVVKFCNVDDDELREYCIQAFESFVRRCPKEVYPHVSTIINICLKYLTYDPNYNYDDEDEDENAMDADGGDDDDQGSDDEYSDDDDMSWKVRRAAAKCLDAVVSTRHEMLPEFYKTVSPALIARFKEREENVKADVFHAYLSLLKQTRPVQSWLCDPDAMEQGDTPLTMLQSQVPNIVKALHKQMKEKSVKTRQCCFNMLTELVNVLPGALTQHIPVLVPGIIFSLNDKSSSSNLKIDALSCLYVILCNHSPQVFHPHVQALVPPVVACVGDPFYKITSEALLVTQQLVKVIRPLDQPSSFDATPYIKDLFTCTIKRLKAADIDQEVKERAISCMGQIICNLGDNLGPDLSNTLQIFLERLKNEITRLTTVKALTLIAGSPLKIDLRPVLGEGVPILASFLRKNQRALKLGTLSALDILIKNYSDSLTAAMIDAVLDELPPLISESDMHVSQMAISFLTTLAKVYPSSLSKISGSILNELIGLVRSPLLQGGALSAMLDFFQALVVTGTNNLGYMDLLRMLTGPVYSQSTALTHKQSYYSIAKCVAALTRACPKEGPAVVGQFIQDVKNSRSTDSIRLLALLSLGEVGHHIDLSGQLELKSVILEAFSSPSEEVKSAASYALGSISVGNLPEYLPFVLQEITSQPKRQYLLLHSLKEIISSASVAGLKPYVENIWALLLKHCECAEEGTRNVVAECLGKLTLIDPETLLPRLKGYLISGSSYARSSVVTAVKFTISDHPQPIDPLLKNCIGDFLKTLEDPDLNVRRVALVTFNSAAHNKPSLIRDLLDSVLPHLYNETKVRKELIREVEMGPFKHTVDDGLDIRKAAFECMYTLLDSCLDRLDIFEFLNHVEDGLKDHYDIKMLTFLMLVRLSTLCPSAVLQRLDRLVEPLRATCTTKVKANSVKQEFEKQDELKRSAMRAVAALLTIPEAEKSPLMSEFQSQISSNPELAAIFESIQKDSSSTNLESMDTS
- binding: binds

Source: paper doi:10.1101/384354
